# From the supplement of paper PMC8728848
# The other results are listed elsewhere or left out.
# B1: MFG-E8 (Homo sapiens), Q08431 (protein)
# chain: MPRPRLLAALCGALLCAPSLLVALDICSKNPCHNGGLCEEISQEVRGDVFPSYTCTCLKGYAGNHCETKCVEPLGLENGNIANSQIAASSVRVTFLGLQHWVPELARLNRAGMVNAWTPSSNDDNPWIQVNLLRRMWVTGVVTQGASRLASHEYLKAFKVAYSLNGHEFDFIHDVNKKHKEFVGNWNKNAVHVNLFETPVEAQYVRLYPTSCHTACTLRFELLGCELNGCANPLGLKNNSIPDKQITASSSYKTWGLHLFSWNPSYARLDKQGNFNAWVAGSYGNDQWLQVDLGSSKEVTGIITQGARNFGSVQFVASYKVAYSNDSANWTEYQDPRTGSSKIFPGNWDNHSHKKNLFETPILARYVRILPVAWHNRIALRLELLGC
# Experiments:
# Experiment in all cases: glycan array binding signal (z-score within array); higher = stronger binding
# Conditions in all cases: glycan notation: IUPAC condensed, linker removed
# [1] = target: Neu5Ac(a2-3)Gal(b1-3)[Fuc(a1-4)]GlcNAc(b1-3)Gal(b1-3)[Fuc(a1-4)]GlcNAc
# Summary of the method: (§1)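 From the Consortium for Functional Glycomics database, 3228 arrays were curated, keeping only those whose protein sequence was available. Binding is given as a within-array Z-score averaged across arrays sharing a protein sequence and across linkers. Negative Z-scores can be read as non-binding.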
# [2] = target: Neu5Ac(a2-3)Gal(b1-3)[Fuc(a1-4)]GlcNAc(b1-3)Gal(b1-4)[Fuc(a1-3)]GlcNAc
# Summary of the method: as §1
# [3] = target: Neu5Ac(a2-3)Gal(b1-3)[Neu5Ac(a2-3)Gal(b1-4)]GlcNAc
# Summary of the method: as §1
# [4] = target: Neu5Ac(a2-3)Gal(b1-3)[Neu5Ac(a2-6)]GalNAc
# Summary of the method: as §1
# Neu5Ac(a2-3)Gal(b1-4)Glc = target: Neu5Ac(a2-3)Gal(b1-4)Glc
# Summary of the method: as §1
# [5] = target: Neu5Ac(a2-3)Gal(b1-4)GlcNAc
# Summary of the method: as §1
# [6] = target: Neu5Ac(a2-3)Gal(b1-4)GlcNAc(b1-2)Man(a1-3)[GlcNAc(b1-2)Man(b1-4)GlcNAc(b1-2)Man(a1-6)]Man(b1-4)GlcNAc(b1-4)GlcNAc
# Summary of the method: as §1
# [7] = target: Neu5Ac(a2-3)Gal(b1-4)GlcNAc(b1-2)Man(a1-3)[Neu5Ac(a2-6)Gal(b1-4)GlcNAc(b1-2)Man(a1-6)]Man(b1-4)GlcNAc(b1-4)GlcNAc
# Summary of the method: as §1
# [8] = target: Neu5Ac(a2-3)Gal(b1-4)GlcNAc(b1-3)Gal
# Summary of the method: as §1
# [9] = target: Neu5Ac(a2-3)Gal(b1-4)GlcNAc(b1-3)Gal(b1-3)GlcNAc
# Summary of the method: as §1
# [10] = target: Neu5Ac(a2-3)Gal(b1-4)GlcNAc(b1-3)Gal(b1-4)GlcNAc
# Summary of the method: as §1
# [11] = target: Neu5Ac(a2-3)Gal(b1-4)GlcNAc(b1-3)Gal(b1-4)GlcNAc(b1-3)Gal(b1-4)GlcNAc
# Summary of the method: as §1
# [12] = target: Neu5Ac(a2-3)Gal(b1-4)GlcNAc(b1-3)Gal(b1-4)[Fuc(a1-3)]GlcNAc
# Summary of the method: as §1
# [13] = target: Neu5Ac(a2-3)Gal(b1-4)GlcNAc(b1-3)GalNAc
# Summary of the method: as §1
# [14] = target: Neu5Ac(a2-3)Gal(b1-4)GlcNAc(b1-6)[Gal(b1-3)]GalNAc
# Summary of the method: as §1
# [15] = target: Neu5Ac(a2-3)Gal(b1-4)GlcNAc(b1-6)[Neu5Ac(a2-3)Gal(b1-3)]GalNAc
# Summary of the method: as §1
# [16] = target: Neu5Ac(a2-3)Gal(b1-4)GlcNAc6S
# Summary of the method: as §1
# [17] = target: Neu5Ac(a2-3)Gal(b1-4)[Fuc(a1-3)]GlcNAc
# Summary of the method: as §1
# [18] = target: Neu5Ac(a2-3)Gal(b1-4)[Fuc(a1-3)]GlcNAc(b1-3)Gal
# Summary of the method: as §1
# [19] = target: Neu5Ac(a2-3)Gal(b1-4)[Fuc(a1-3)]GlcNAc(b1-3)Gal(b1-4)GlcNAc
# Summary of the method: as §1
# [20] = target: Neu5Ac(a2-3)Gal(b1-4)[Fuc(a1-3)]GlcNAc(b1-3)Gal(b1-4)[Fuc(a1-3)]GlcNAc(b1-3)Gal(b1-4)[Fuc(a1-3)]GlcNAc
# Summary of the method: as §1
# [21] = target: Neu5Ac(a2-3)Gal(b1-4)[Fuc(a1-3)]GlcNAc(b1-3)GalNAc
# Summary of the method: as §1
# [22] = target: Neu5Ac(a2-3)Gal(b1-4)[Fuc(a1-3)]GlcNAc(b1-6)[Gal(b1-3)]GalNAc
# Summary of the method: as §1
# [23] = target: Neu5Ac(a2-3)Gal(b1-4)[Fuc(a1-3)]GlcNAc6S
# Summary of the method: as §1
# [24] = target: Neu5Ac(a2-3)Gal6S(b1-4)GlcNAc
# Summary of the method: as §1
# [25] = target: Neu5Ac(a2-3)Gal6S(b1-4)[Fuc(a1-3)]GlcNAc
# Summary of the method: as §1
# Neu5Ac(a2-3)GalNAc = target: Neu5Ac(a2-3)GalNAc
# Summary of the method: as §1
# [26] = target: Neu5Ac(a2-3)GalNAc(b1-4)GlcNAc
# Summary of the method: as §1
# [27] = target: Neu5Ac(a2-3)[GalNAc(b1-4)]Gal(b1-4)Glc
# Summary of the method: as §1
# [28] = target: Neu5Ac(a2-3)[GalNAc(b1-4)]Gal(b1-4)GlcNAc
# Summary of the method: as §1
# [29] = target: Neu5Ac(a2-3)[GalNAc(b1-4)]Gal(b1-4)GlcNAc(b1-3)GalNAc
# Summary of the method: as §1
# [30] = target: Neu5Ac(a2-3)[Neu5Ac(a2-6)]GalNAc
# Summary of the method: as §1
# Neu5Ac(a2-6)Gal = target: Neu5Ac(a2-6)Gal
# Summary of the method: as §1
# [31] = target: Neu5Ac(a2-6)Gal(b1-3)GlcNAc(b1-3)[Gal(b1-4)GlcNAc(b1-6)]Gal(b1-4)Glc
# Summary of the method: as §1
# Neu5Ac(a2-6)Gal(b1-4)Glc = target: Neu5Ac(a2-6)Gal(b1-4)Glc
# Summary of the method: as §1
# [32] = target: Neu5Ac(a2-6)Gal(b1-4)GlcNAc
# Summary of the method: as §1
# [33] = target: Neu5Ac(a2-6)Gal(b1-4)GlcNAc(b1-2)Man(a1-3)Man(b1-4)GlcNAc(b1-4)GlcNAc
# Summary of the method: as §1
# [34] = target: Neu5Ac(a2-6)Gal(b1-4)GlcNAc(b1-2)Man(a1-3)[Gal(b1-4)GlcNAc(b1-2)Man(a1-6)]Man(b1-4)GlcNAc(b1-4)GlcNAc
# Summary of the method: as §1
binder,measurement,setting,value
B1,glycan array binding signal (z-score),[1],1.24
same,glycan array binding signal (z-score),[2],-0.483
same,glycan array binding signal (z-score),[3],-0.722
same,glycan array binding signal (z-score),[4],-0.174
same,glycan array binding signal (z-score),Neu5Ac(a2-3)Gal(b1-4)Glc,0.001
same,glycan array binding signal (z-score),[5],-0.075
same,glycan array binding signal (z-score),[6],0.027
same,glycan array binding signal (z-score),[7],-0.677
same,glycan array binding signal (z-score),[8],0.052
same,glycan array binding signal (z-score),[9],-0.113
same,glycan array binding signal (z-score),[10],1.58
same,glycan array binding signal (z-score),[11],0.523
same,glycan array binding signal (z-score),[12],-0.618
same,glycan array binding signal (z-score),[13],0.039
same,glycan array binding signal (z-score),[14],-0.167
same,glycan array binding signal (z-score),[15],-0.722
same,glycan array binding signal (z-score),[16],0.461
same,glycan array binding signal (z-score),[17],-0.45
same,glycan array binding signal (z-score),[18],-0.206
same,glycan array binding signal (z-score),[19],-0.126
same,glycan array binding signal (z-score),[20],-0.601
same,glycan array binding signal (z-score),[21],0.349
same,glycan array binding signal (z-score),[22],1.09
same,glycan array binding signal (z-score),[23],1.71
same,glycan array binding signal (z-score),[24],-0.144
same,glycan array binding signal (z-score),[25],-0.252
same,glycan array binding signal (z-score),Neu5Ac(a2-3)GalNAc,-0.592
same,glycan array binding signal (z-score),[26],-0.032
same,glycan array binding signal (z-score),[27],-0.452
same,glycan array binding signal (z-score),[28],-0.29
same,glycan array binding signal (z-score),[29],0.405
same,glycan array binding signal (z-score),[30],0.715
same,glycan array binding signal (z-score),Neu5Ac(a2-6)Gal,-0.01
same,glycan array binding signal (z-score),[31],1.42
same,glycan array binding signal (z-score),Neu5Ac(a2-6)Gal(b1-4)Glc,-0.016
same,glycan array binding signal (z-score),[32],-0.609
same,glycan array binding signal (z-score),[33],1.53
same,glycan array binding signal (z-score),[34],0.312

# Fetched one by one from the list above (3):
binder,measurement,setting,value
B1,glycan array binding signal (z-score),[26],-0.032
same,glycan array binding signal (z-score),[15],-0.722
same,glycan array binding signal (z-score),[2],-0.483
